Our source for the AC50 values is PubChem BioAssay AID493014 (National Center for Advancing Translational Sciences (NCATS), 2011).

Values joined by “and” are separate entries in the source; they are usually repeats but may differ in a detail not shown here. Equal values may be shown once. The list shows a part of the results. The main result of the screen is listed elsewhere. These columns were measured beside it and carry no call. Compounds called inactive in the main read-out are mostly missing here. Words in brackets tell the shape of the fitted curve; partial curves, single points and poor fits give uncertain potencies.

A short description of the assay: qHTS Assay to Find Inhibitors of Chronic Active B-Cell Receptor Signaling. As to conditions: ABC-DLBCL IkBa-CBG/CBR reporter, luminescence ratio (green luciferase fused to IkBa over red control in TMD8 lymphoma cells), 4 h. The method, boiled down: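 Cell line TMD8 (human ABC DLBCL), stably expressing tet-inducible CBG68-IkBa fusion and CBR; IMDM/0.5% FBS; cpd up to 46 uM; dox induction, 4 h, 37C/5% CO2; dual luminescence; green/red ratio; MG132 control.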
For orientation: qHTS replaces the single test concentration by a dilution series.

[1] abbreviates: measured here: CBR red luminescence, cell number.
Where [2] appears, read: measured here: IkBa-CBG green luminescence.

Broadly, the AC50 is the concentration at which the activity in the assay is half-maximal. Turning to `Cc1c(/C=C2\SC(=Nc3cccc(C(=O)O)c3)NC2=O)c2ccccc2n1C`, under setting [1], the AC50 is 17.8 µM [falling, single point].
The same measure, in the same setting: for `COc1ccc(-n2cnc3cc(N)ccc32)cc1` the value was 29.1 µM [rising, single point]; for `CN(CC(=O)Nc1ccc(OC(F)(F)F)cc1)C(=O)Cn1c(=O)cnc2ccccc21`, 0.82 µM [falling, full curve, poor fit].
The same measure, in the same setting: the same measure for `COc1cccc(CNc2ncc(C(=O)Nc3cc(OC)c(OC)c(OC)c3)c(C)n2)c1`: 2 µM [falling, partial curve, poor fit]; for `Cc1ccc(-n2nc(-c3ccc(OC(F)(F)F)cc3)cc2N)cc1C`: 5.62 µM [rising, full curve].
In the case of `Cc1ccc(NN=Nc2nc3c([nH]2)c(=O)n(C)c(=O)n3C)cc1`, under setting [2], the concentration at half-maximal activity (AC50) is 25.9 µM [rising, partial curve, poor fit].
Regarding `Oc1c(Br)cc(C2N=C(c3ccccc3)NO2)cc1Br` (stereo not drawn), the AC50 under setting [1] was 0.891 µM [rising, full curve, poor fit].
Still for that read-out and setting: for `Cn1c(NC(=S)Nc2ccccc2)nc2ccccc21` the value was 7.31 µM [falling, partial curve].
Same read-out and setting: the same measure for `Cc1cc(=O)oc2c3c(cc(OCC(=O)NCc4ccncc4)c12)OC(C)(C)CC3`: 4.47 µM [rising, full curve, poor fit].
Still for that read-out and setting: for `COc1ccc(/C=C(\NC(=O)c2ccccc2)C(=O)NCc2cccnc2)cc1` the value was 35.5 µM [falling, single point].
Consider `CC(=O)c1cccc(-c2csc(N3CCC(C(N)=O)CC3)n2)c1`, for which the concentration at half-maximal activity (AC50) under setting [1] is 29.1 µM [rising, single point] and 7.31 µM [rising, partial curve].
On to `c1cncc(Nc2c3ccccc3nc3ccccc23)c1`, for which the AC50 under setting [1] was 14.1 µM [falling, single point].
With `Cc1cccc(Nc2nc(-c3ccc(O)c(O)c3)cs2)n1`, under setting [1], the AC50 is 17.8 µM [falling, partial curve].
In the case of `CCOC(=O)CSC1=C(C#N)C(c2ccc(OC)cc2)C2=C(CC(C)(C)CC2=O)N1` (stereo not drawn), the AC50 under setting [1] is 35.5 µM [falling, single point].
Still for that read-out and setting: for `CCOc1ccc(/C(O)=C2/C(=O)C(=O)N(c3ccccn3)C2c2ccc(Cl)cc2)c(C)c1` (stereo not drawn) the value was 35.5 µM [falling, single point]; for `CCC(=O)NC(=S)Nc1cccc(NC(=O)c2ccccc2)c1`, 35.5 µM [falling, single point]; for `COc1ccc(NC(=O)[C@@H](NS(=O)(=O)c2cccc(Cl)c2)C(C)C)cc1S(=O)(=O)N1CCOCC1`, 0.326 µM [rising, full curve, poor fit].
The same measure, in the same setting: for `CC(=O)Oc1cccc2c1C(=O)c1c(OC(C)=O)cc(C(=O)O)cc1C2=O` the value was 2.59 µM [falling, partial curve].
For `O=C1CCCc2nn(-c3ccccc3)nc21`, the AC50 under setting [1] was 32.6 µM [rising, partial curve, poor fit].
Take `C=CCN(c1ccccc1)S(=O)(=O)c1cccc(C(=O)Nc2nc3ccccc3[nH]2)c1`: the AC50 is, setting by setting: under setting [1], 5.8 µM [falling, partial curve]; under setting [2], 5.17 µM [rising, partial curve, poor fit].
Take `CSc1nnc(-c2cc(-c3ccc(C)cc3)nc3ccccc23)o1`: the AC50 under setting [1] was 10.3 µM [rising, partial curve, poor fit].
Consider `CCOC(=O)c1[nH]c2c(c1C)C(=O)CC(c1ccco1)C2` (stereo not drawn), for which the concentration at half-maximal activity (AC50) is 0.731 µM [rising, full curve] under setting [1] and 0.517 µM [falling, full curve, poor fit] under setting [2].
For `Cc1ccc2nc(C(F)(F)F)c(C#N)c(N)c2c1`, the AC50 under setting [1] was 32.6 µM [falling, single point].
Take `COc1ccc(S(=O)(=O)Nc2c(C(=O)O)[nH]c3ccc(OC)cc23)c(OC)c1`: the half-maximal activity concentration (AC50) under setting [1] was 11.2 µM [falling, single point].
Consider `COc1ccccc1S(=O)(=O)Nc1cccc(-c2nnc3n2CCCCC3)c1`, for which, under setting [1], the AC50 is 0.0891 µM [rising, full curve, poor fit].
Take `Cc1cccc(NC(=O)C2(c3ccc([N+](=O)[O-])cc3)CCCC2)c1`: under setting [2], the concentration at half-maximal activity (AC50) was 17.8 µM [rising, partial curve, poor fit].
In the case of `COc1cc2c(cc1NS(=O)(=O)N1CCCCC1)oc1ccccc12`, the half-maximal activity concentration (AC50) under setting [1] was 16.4 µM [falling, single point].
With `COc1ccccc1-c1nnc2n1N=C(c1ccc(O)c(O)c1)CS2`, the half-maximal activity concentration (AC50) reads like this: under setting [1], 35.5 µM [falling, single point]; under setting [2], 0.794 µM [falling, full curve].
Consider `Cc1nnc(Nc2ccc(C(=O)N3CCOCC3)cc2)c2ccccc12`, for which the half-maximal activity concentration (AC50) under setting [1] was 25.9 µM [falling, single point].
On the same count and under the same terms, the same measure for `O=c1c2ccccc2nc(/C=C/c2cccnc2)n1Cc1ccccc1`: 25.1 µM [falling, single point]; for `O=C(Cc1ccccc1)NN1C(=O)/C(=C/c2ccc(C(=O)O)cc2)SC1=S`: 11.2 µM [falling, partial curve, poor fit]; for `COc1ccc(C(=O)CNc2ccccc2Br)cc1`: 11.2 µM [falling, single point].
As for `Cc1ccc(NC(=S)N/N=C/c2c(Cl)cccc2Cl)c(C)c1`, the AC50 was 16.4 µM [rising, partial curve] under setting [1] and 18.4 µM [falling, partial curve] under setting [2].
On to `Cc1cccc(C(=O)NC(=S)NNC(=O)COc2ccc(Cl)cc2)c1`, for which the AC50 under setting [1] is 3.55 µM [rising, full curve, poor fit].
Same read-out and setting: the same measure for `COc1ccccc1NC(=S)NNC(=O)c1ccc(O)cc1`: 23.1 µM [falling, partial curve, poor fit]; for `COc1ccc(NC(=O)c2cc3ccccc3[nH]2)cc1`: 10 µM [falling, partial curve].
Still for that read-out and setting: the same measure for `CN(C)C(=O)c1c(NC(=O)c2ccccc2)sc2c1CCC2`: 11.2 µM [falling, partial curve, poor fit].
Regarding `COc1ccc(N(CC(O)CN2CCCCC2)S(=O)(=O)c2ccc(C)cc2)cc1` (stereo not drawn), the AC50 reads like this: under setting [1], 29.1 µM [falling, single point]; under setting [2], 32.6 µM [rising, partial curve, poor fit].
As for `Cc1cccc2c1-c1sc(C(=O)NCCCN3CCC(C)CC3)cc1CO2`, under setting [1], the concentration at half-maximal activity (AC50) is 35.5 µM [falling, single point].
Same read-out and setting: the same measure for `CCOCCCn1c(SCc2nc3ccccc3s2)nc2ccccc2c1=O`: 29.1 µM [rising, single point]; for `COc1ccccc1C(=O)Nc1nnc(S(=O)(=O)N2CCCCC2)s1`: 3.55 µM [rising, partial curve, poor fit]; for `CCCSc1nc(C)nc2c1c(=O)n(C)c(=O)n2C`: 29.1 µM [rising, single point].
Take `O=C(CSc1nnc(-c2ccc(F)cc2)c2ccccc12)Nc1cccc(Cl)c1`: the AC50 under setting [1] is 5.8 µM [falling, partial curve].
Consider `CC(=O)c1sc(NC(=O)c2ccccc2F)nc1C`, for which the half-maximal activity concentration (AC50) under setting [1] was 18.4 µM [falling, partial curve].
As for `COC(=O)CCC(=O)OC1(C)C(=O)C2=CN(CCN3CCOCC3)C(c3ccc(OC)cc3)=CC2=C(Br)C1=O` (stereo not drawn), under setting [1], the AC50 is 5.62 µM [rising, single point].
As for `COc1ccc(Cl)cc1NC(=O)c1c(NCc2cccnc2)sc2c1CCCC2`, the AC50 under setting [1] is 3.55 µM [rising, partial curve, poor fit].
With `S=C(Nc1ccc(Br)cc1Cl)NC1CCN(Cc2ccccc2)CC1`, under setting [1], the AC50 was 14.1 µM [falling, single point].
As to `Cn1cc(C(=O)c2ccc(Cl)cc2Cl)cc1C=O`, under setting [1], the AC50 was 7.08 µM [falling, partial curve].
Consider `N#C/C(=C(/O)c1ccc2c(c1)OCO2)c1nc2cc(C(F)(F)F)ccc2s1`, for which the concentration at half-maximal activity (AC50) under setting [1] is 5.62 µM [falling, partial curve].
Take `COc1ccccc1OCCn1c(C)c(C=O)c2ccccc21`: the half-maximal activity concentration (AC50) under setting [1] is 14.1 µM [falling, single point].
On to `CCOc1cc(C(=O)N/N=C\c2cn(CC)nc2C)cc(OCC)c1OCC`, for which the concentration at half-maximal activity (AC50) was 23.1 µM [rising, partial curve] under setting [1] and 20.6 µM [falling, single point] under setting [2].
For the molecule `CCn1c2ccccc2c2nc3cc(C(=O)O)ccc3nc21`, the AC50 under setting [1] was 1.58 µM [falling, partial curve].
The same measure, in the same setting: the same measure for `CCN(CC)CCNC(=O)Cn1cnc2sc(C)c(S(=O)(=O)N3CCN(c4ccccc4OC)CC3)c2c1=O`: 5.62 µM [falling, single point].
Still for that read-out and setting: for `O=C(C[n+]1ccccc1)N/N=C/c1ccc(C(=O)O)cc1` the value was 23.1 µM [rising, partial curve, poor fit]; for `O=C(CSc1nc2ccccc2c(=O)n1-c1ccccc1)c1c[nH]c2ccccc12`, 2.31 µM [rising, partial curve, poor fit]; for `CCN(CC)CCN1C(=O)c2oc3ccccc3c(=O)c2C1c1ccc(F)cc1` (stereo not drawn), 25.9 µM [falling, partial curve].
On to `O=C(CSc1nc2ccccc2o1)c1cc2ccccc2oc1=O`, for which the concentration at half-maximal activity (AC50) under setting [1] was 29.1 µM [falling, single point].
Turning to `CNc1oc(-c2ccc(OCc3ccccc3)cc2)nc1C#N`, under setting [1], the AC50 is 3.16 µM [rising, full curve].
`CCOc1ccc(N(CC(=O)NCc2ccc(C)cc2)S(=O)(=O)c2c(C)[nH]c(=O)[nH]c2=O)cc1`: under setting [1], the concentration at half-maximal activity (AC50) is 3.98 µM [falling, partial curve].
Still for that read-out and setting: the same measure for `CCN(CC)S(=O)(=O)c1ccc(OCC(=O)NC(=O)c2ccccc2OC)c([N+](=O)[O-])c1`: 10 µM [rising, partial curve].
Turning to `CCOc1cc(CNCCN2CCOCC2)ccc1OCc1ccccc1Cl`, the AC50 under setting [1] was 35.5 µM [falling, single point].
For `CC(C)n1cc(CN2CCCC(C(=O)Nc3cccc(-c4cc5ccccc5[nH]4)c3)C2)cn1` (stereo not drawn), the AC50 under setting [1] is 20 µM [falling, partial curve, poor fit].
